Laboratory results: US20030161787A1, “Method for the identification of agents and genes influencing cardiovascular function” (priority 2000, published 2003)
At least one structure is not confirmed: it was looked up by name or label, or the drawing left a doubt.

Test system: zebrafish larvae
Test: Zebrafish larvae bathed in drug-containing medium; heart beat rate, contractility and blood flow monitored by microscope
Assay type: in vivo
Procedure: About 50 zebrafish larvae were incubated for 2-7 d at 22-28° C. in petri dishes filled with 30 ml embryo medium.
At the day of the experiment 10 larvae were transferred to small petri dishes filled with 10 ml embryo medium, 0.5 ml MESAB solution and 10 μl of the respective drug (or +10 μl of a second drug) added from a 1000-fold stock solution prepared with DMSO, these three components were previously mixed in 50 ml plastic tubes (controls only receive 10 μl DMSO).
At certain time points the contractility of the heart and blood flow was monitored, and the heart rate was determined by counting the heart beat with the aid of a stereo-microscope.

COCCOC(=O)C1=C(C)NC(C)=C(C(=O)OC(C)C)C1c1cccc([N+](=O)[O-])c1 (stereo not drawn) [nimodipine]
reversibility of the effect (after washout of the drug): reversible after washout
effect on heart beat rate, contractility and blood flow (drug added to bathing medium, 2 d old larvae, 100 μM (FIG. 1) or increasing concentrations (FIG. 2)): decrease in heart beat rate, contractility and blood flow
effect on heart contractility, blood flow and heart beat rate (low concentrations applied to the bathing medium): strong decrease in heart contractility, blood flow and heart beat rate
